Data on 1 substance can be found in publication doi:10.1101/2025.06.16.659844.

Chains of the proteins cited; added tags and fusions are not shown. Lines headed by an entry give the natural chain unless they say otherwise; changes in a name come on top.
UniProt P61960: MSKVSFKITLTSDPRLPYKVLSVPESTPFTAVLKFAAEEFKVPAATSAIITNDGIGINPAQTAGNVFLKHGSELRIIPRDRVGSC
UniProt Q9H9Q4: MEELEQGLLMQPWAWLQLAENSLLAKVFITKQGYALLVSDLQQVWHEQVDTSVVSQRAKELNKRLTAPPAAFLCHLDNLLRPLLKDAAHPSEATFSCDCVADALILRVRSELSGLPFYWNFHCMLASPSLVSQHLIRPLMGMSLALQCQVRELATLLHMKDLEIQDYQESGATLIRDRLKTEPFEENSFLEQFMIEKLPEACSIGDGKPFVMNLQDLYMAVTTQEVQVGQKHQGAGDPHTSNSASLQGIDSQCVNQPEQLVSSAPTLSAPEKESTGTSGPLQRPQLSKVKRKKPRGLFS

No constants are given. Whether binding was seen depends on the method and setting. Binding seen in cells or lysates may run through a third protein. Binding can be weak; no strength is given.

This experiment concerns the target GST-UFM1 (UniProt P61960). The experiment can be described thus: pull-down.

Regarding “XLF mutated in residues 199-207 (from UniProt Q9H9Q4)”, the binding entry is recorded as “binds”.
